Record: PubChem BioAssay AID493246 (Drosophila RNAi Screening Center, 2011)
The screen tested about 21,000 reagents; below is an unselected part of those that have a named target and a result. In the full data, 429 (2%) were called active. 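Values are raw and not normalised between plates; calls rest on per-plate z-scores that were not deposited.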 A number with no mark means an inactive call. A plus sign joins genes that one reagent is predicted to hit. Not stated in the record: the amount of reagent, the time to read-out.

Purpose: 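Identify essential fly genes by loss of cell viability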 (primary screen)
Cells: Drosophila Kc and S2R+ cells
Knock-down reagent: long dsRNA against Drosophila genes
Read-out: 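Raw, unnormalised count of remaining cells in each well; per-plate z-scores of cell number underlie the calls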
Reading the numbers: Kc cell number and S2R+ cell number: higher = more cells remaining
Active means: 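Active when the per-plate z-score of cell number is 3 or more in the direction of fewer cells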

no.	target gene	amplicon	Kc cell number, rep 1	Kc cell number, rep 2	S2R+ cell number, rep 1	S2R+ cell number, rep 2
1	Trp1	DRSC03465	1.48e6	1.48e6	1.16e6	1.28e6
2	RNaseX25	DRSC11259	1.43e6	1.46e6	1.30e6	1.28e6
3	fh	DRSC18430	1.59e6	1.52e6	1.03e6	1.14e6
4	Bcat	DRSC19756	1.69e6	1.53e6	1.11e6	1.17e6
5	CG12746	DRSC12218	1.47e6	1.56e6	1.22e6	1.27e6
6	CG5916	DRSC15917	1.54e6	1.54e6	1.23e6	1.23e6
7	Wsck	DRSC13682	1.26e6	1.45e6	1.08e6	1.17e6
8	SdhBL	DRSC20039	1.43e6	1.48e6	1.04e6	1.13e6
9	Tm1	DRSC13082	1.45e6	1.62e6	1.14e6	1.25e6
10	Tm1	DRSC13083	1.45e6	1.57e6	9.78e5	1.18e6
11	Tm1	DRSC16886	1.65e6	1.68e6	1.33e6	1.37e6
12	Ilp3	DRSC10168	1.29e6	1.38e6	1.31e6	1.35e6
13	Kdm4A	DRSC06586	1.43e6	1.48e6	1.15e6	1.19e6
14	l(3)mbn	DRSC08793	1.75e6	1.64e6	1.07e6	1.25e6
15	CG30060	DRSC05419	1.43e6	1.38e6	9.73e5	1.09e6
16	CG12992	DRSC19512	1.49e6	1.47e6	1.06e6	1.13e6
17	CG12693	DRSC17882	1.45e6	1.46e6	9.97e5	1.12e6
18	msi	DRSC17003	8.41e5 (active)	8.39e5	9.67e5	1.07e6
19	CG34125	DRSC00850	1.53e6	1.53e6	1.05e6	1.21e6
20	Eip78C	DRSC11864	1.32e6 (active)	1.28e6	6.75e5	7.35e5
21	Cnep1r2	DRSC10950	1.56e6	1.52e6	1.26e6	1.18e6
22	Arpc3B	DRSC20126	1.44e6	1.48e6	9.63e5	1.06e6
23	slmo + CG34179	DRSC03143	1.30e6	1.45e6	4.34e5	6.92e5
24	dpr8	DRSC19406	1.49e6	1.53e6	1.04e6	1.06e6
25	dpr8	DRSC19600	1.50e6	1.49e6	1.08e6	1.19e6
26	dpr8	DRSC19938	1.46e6	1.47e6	1.02e6	1.10e6
27	dpr8	DRSC19939	1.46e6	1.48e6	1.05e6	1.14e6
28	CG43316	DRSC06296	1.54e6	1.53e6	1.19e6	1.26e6
29	CG43316	DRSC06297	1.43e6	1.50e6	1.17e6	1.31e6
30	CG42663	DRSC06158	1.71e6	1.76e6	1.26e6	1.44e6
31	CG42663	DRSC06404	1.72e6	1.71e6	1.13e6	1.20e6
32	Fit2	DRSC10908	1.46e6	1.45e6	1.26e6	1.27e6
33	Sec16	DRSC19788	1.63e6	1.50e6	9.77e5	1.09e6
34	Sec16	DRSC19858	1.60e6	1.51e6	1.08e6	1.14e6
35	SPARC	DRSC14123	1.51e6	1.51e6	1.02e6	1.14e6
36	Cyp6a23	DRSC07383	1.68e6	1.73e6	1.47e6	1.46e6
37	parvin	DRSC19468	1.55e6	1.59e6	1.12e6	1.25e6
38	CG13031	DRSC09911	1.28e6	1.58e6	1.34e6	1.45e6
39	Phs	DRSC10827	1.57e6	1.50e6	1.26e6	1.41e6
40	Or13a	DRSC20265	1.54e6	1.58e6	1.11e6	1.24e6
41	CG34263	DRSC07866	1.50e6	1.43e6	1.03e6	1.19e6
42	AttC	DRSC06886	1.49e6	1.49e6	1.19e6	1.34e6
43	CG14829	DRSC10199	1.71e6	1.61e6	1.08e6	1.23e6
44	CG17560	DRSC15242	1.50e6	1.45e6	1.07e6	1.16e6
45	Neto	DRSC19503	6.85e5		1.03e6	
46	Neto	DRSC19716	1.60e6	1.61e6	1.00e6	1.17e6
47	Neto	DRSC19717	1.63e6	1.59e6	1.12e6	1.25e6
48	CG17601	DRSC20639	1.44e6	1.46e6	1.00e6	1.13e6
49	CG16863	DRSC01892	1.41e6	1.51e6	1.22e6	1.40e6
50	nmd	DRSC02856	1.50e6	1.59e6	1.29e6	1.25e6
51	CG30484	DRSC05457	1.42e6	1.39e6	9.56e5	1.14e6
52	CG7692	DRSC10902	1.61e6	1.47e6	1.21e6	1.30e6
53	CG9270	DRSC03182	1.30e6	1.42e6	1.11e6	1.07e6
54	sba	DRSC13643	1.14e6 (active)	1.28e6	6.59e5	6.29e5
55	sba	DRSC17050	1.37e6	1.41e6	9.99e5	1.15e6
56	Tcs5	DRSC09774	1.48e6	1.34e6	1.20e6	1.23e6
57	ras	DRSC18825	5.99e5		9.75e5	
58	rdx	DRSC14526	1.37e6	1.37e6	8.26e5	9.18e5
59	rdx	DRSC16580	1.22e6	1.47e6	1.00e6	1.06e6

8 entries from above, reduced to “S2R+ cell number, rep 1”:
nmd [DRSC02856] = 1.29e6
CG30484 [DRSC05457] = 9.56e5
CG7692 [DRSC10902] = 1.21e6
CG9270 [DRSC03182] = 1.11e6
sba [DRSC13643] = 6.59e5 (active)
sba [DRSC17050] = 9.99e5
Tcs5 [DRSC09774] = 1.20e6
ras [DRSC18825] = 9.75e5
